Measurements from article PMC10561454.
Results are given in words; binding and its absence hold for the method and conditions named. Binding seen in cells or lysates may run through a third protein. Binding calls can cover weak binding; strength is not graded here.

Target: T1, thioredoxin-interacting protein (rat (endogenous in rat chondrocytes)) (UniProt Q5M7W1)
T1 sequence: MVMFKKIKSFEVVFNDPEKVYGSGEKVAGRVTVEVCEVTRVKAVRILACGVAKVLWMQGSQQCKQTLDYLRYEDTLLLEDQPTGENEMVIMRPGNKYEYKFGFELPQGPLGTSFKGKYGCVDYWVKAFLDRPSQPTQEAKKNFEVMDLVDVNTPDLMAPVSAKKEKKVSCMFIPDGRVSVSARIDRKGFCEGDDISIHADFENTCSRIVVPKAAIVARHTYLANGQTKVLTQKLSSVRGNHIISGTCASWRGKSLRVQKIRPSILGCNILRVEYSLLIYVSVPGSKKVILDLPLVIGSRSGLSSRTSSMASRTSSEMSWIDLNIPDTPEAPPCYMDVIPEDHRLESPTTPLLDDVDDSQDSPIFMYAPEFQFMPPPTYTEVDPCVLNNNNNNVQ
Assay: co-IP; lysates of IL-1β-treated rat chondrocytes in RIPA buffer; IgG or antibodies against USP25 and TXNIP at 4 °C overnight, protein A/G beads at 4 °C for 4 h; bound protein detected by western blot

Ubiquitin-specific peptidase 25 (rat (endogenous in rat chondrocytes)) (enzyme)
binding: binds
